Among the data in PubChem BioAssay AID330 (DTP/NCI, 2004) are survivor count and T/C values, retold here.

The test system of the experiment is P388 leukemia ip, CD2F1 mice, survival T/C. Kind of experiment: NCI In Vivo Anticancer Drug Screen. Data for tumor model P388 Leukemia (intraperitoneal) in CD2F1 (CDF1) mice. The following applies: T/C endpoint: median survival time, higher T/C = longer survival.
Setting [1] is: dose: 100.0 mg/kg/injection, schedule: Q01DX009 (ip), vehicle: saline with Tween-80.
[2] abbreviates: dose: 240.0 mg/kg/injection, schedule: Q01DX005 (ip), vehicle: saline.
Setting [3] is: dose: 200.0 mg/kg/injection, schedule: Q01DX005 (ip), vehicle: saline with Tween-80.
[4] abbreviates: dose: 100.0 mg/kg/injection, schedule: Q01DX005 (ip), vehicle: saline.
The mark [5] stands for this setting: dose: 200.0 mg/kg/injection, schedule: Q01DX009 (ip), vehicle: Klucel (hydroxypropylcellulose) (HPC).

The list shows only some results of the screen, not a fair sample: it gathers tests that were run many times, whatever their T/C, doses with no T/C, and many T/C values between a quarter and a half above the control. Other doses and runs of a compound stand elsewhere. T/C gives the treated animals as a percentage of the vehicle group. Some entries give survivors of the animals treated and no T/C: the source holds a T/C of zero for them, seemingly a mark for toxic or unscored doses. Some survivor counts are full or nearly so, which does not show that the dose was tolerated: the source hardly ever lists a survival T/C far under the control, and the zero likely stands for such cases as well. Survivors were counted at the toxicity check, usually on the fifth day, unless a day is given; later deaths do not show. Schedules are NCI's codes, read here as Q, the interval in days (D) or hours (H), X, the number of doses. Signs of the kind (2×) give the number of equal values in this list. Some doses were run more than once; their values stand side by side, smallest first. Where survival is the endpoint, this PubChem deposit counts one and a half times the control or more as active, and values a quarter to a half above the control carry no call in these data; other NCI protocols may use other cut-offs. Some T/C values are followed by the survivors on the day toxicity was checked, most often the fifth; where none is given, no animal had died by that day.

`CCC1CC(O)c2c(O)c3c(c(O)c2C1O)C(=O)c1cccc(O)c1C3=O` (stereo not drawn) (tested in a mixture with another compound): the survivor count runs as follows: (dose: 0.25 mg/kg/injection, schedule: Q01DX009 (ip), vehicle: other) 6 of 6; (dose: 0.5 mg/kg/injection, schedule: Q01DX009 (ip), vehicle: other) 4 of 6; (dose: 0.5 mg/kg/injection, schedule: Q04DX003 (ip), vehicle: other) 6 of 6; (dose: 1.0 mg/kg/injection, schedule: Q01DX009 (ip), vehicle: other) 6 of 6; (dose: 1.0 mg/kg/injection, schedule: Q04DX003 (ip), vehicle: other) 6 of 6; (dose: 2.0 mg/kg/injection, schedule: Q01DX009 (ip), vehicle: other) 0 of 6. Further, the survivor count (dose: 2.0 mg/kg/injection, schedule: Q04DX003 (ip), vehicle: other) is recorded as 3 of 6; the survivor count (dose: 4.0 mg/kg/injection, schedule: Q01DX009 (ip), vehicle: other) is on record as 0 of 6; the survivor count (dose: 4.0 mg/kg/injection, schedule: Q04DX003 (ip), vehicle: other) is listed as 0 of 6; the survivor count (dose: 250.0 micrograms/kg/injection, schedule: Q01DX009 (ip), vehicle: other) is given as 6 of 6; the survivor count (dose: 500.0 micrograms/kg/injection, schedule: Q01DX009 (ip), vehicle: other) is reported as 6 of 6.

As for `Cn1c2ccccc2c(=O)c2c(O)cc3c(c21)CC(C1(C)CO1)O3` (stereo not drawn), under “dose: 32.0 mg/kg/injection, schedule: Q01DX005 (ip), vehicle: Klucel (hydroxypropylcellulose) (HPC)”, the T/C is 126 % of control.

Consider `CNC(=O)n1c(N)nc(-c2ccccc2)c1-c1ccccc1`, for which the T/C is, setting by setting: (dose: 12.5 mg/kg/injection, schedule: Q04DX002 (ip), vehicle: saline with Tween-80) 125 % of control; (dose: 25.0 mg/kg/injection, schedule: Q04DX002 (ip), vehicle: saline with Tween-80) 131 % of control; (dose: 50.0 mg/kg/injection, schedule: Q04DX002 (ip), vehicle: saline with Tween-80) 132 % of control [5 of 6 alive]. In addition, the survivor count (dose: 100.0 mg/kg/injection, schedule: Q04DX002 (ip), vehicle: saline with Tween-80) was 2 of 6.

Turning to `CSCC(CO)NC(=O)/C=C/c1c(C)[nH]c(=O)[nH]c1=O` (stereo not drawn), the survivor count is reported as 6 of 6 (dose: 200.0 mg/kg/injection, schedule: Q01DX009 (ip), vehicle: other) and 6 of 6 (dose: 400.0 mg/kg/injection, schedule: Q01DX009 (ip), vehicle: other).

With `CCOP(=O)(O)SP(=O)(O)OCC.[Zn+2]`, the survivor count under setting [1] was 3 of 6 and 4 of 6; the survivor count (dose: 200.0 mg/kg/injection, schedule: Q01DX009 (ip), vehicle: saline with Tween-80) is recorded as 1 of 6.

`CN(C)C(=O)On1cc(Cl)cc1C#N`: the survivor count runs as follows: (dose: 150.0 mg/kg/injection, schedule: Q04DX003 (ip), vehicle: Klucel (hydroxypropylcellulose) (HPC)) 0 of 6; (dose: 300.0 mg/kg/injection, schedule: Q04DX003 (ip), vehicle: Klucel (hydroxypropylcellulose) (HPC)) 0 of 6.

Turning to `O=C(NCCCCCCNC(=O)C1CCCN1)C1CCCN1` (stereo not drawn), the survivor count is, setting by setting: (dose: 120.0 mg/kg/injection, schedule: Q01DX005 (ip), vehicle: saline) 4 of 6; under setting [2], 0 of 6.

Take `CCOC(=O)C(SC#N)[Se]c1ccccc1` (stereo not drawn): the survivor count under setting [3] is on record as 2 of 6.

Consider `Fc1cccc2c(SCCCCCSc3c4ccccc4nc4c(F)cccc34)c3ccccc3nc12`, for which the survivor count (dose: 240.0 mg/kg/injection, schedule: Q01DX005 (ip), vehicle: Klucel (hydroxypropylcellulose) (HPC)) is reported as 6 of 6.

As for `CCCCCCCCCCN(CCCCCCCCCC)C1CC(OC2CC(O)(C(C)=O)Cc3c(O)c4c(c(O)c32)C(=O)c2c(OC)cccc2C4=O)OC(C)C1O` (stereo not drawn), the survivor count is 1 of 3 (dose: 25.0 mg/kg/injection, schedule: Q01DX009 (ip), vehicle: distilled water + Tween-80) and 0 of 3 (dose: 50.0 mg/kg/injection, schedule: Q01DX009 (ip), vehicle: distilled water + Tween-80). The T/C (dose: 150.0 mg/kg/injection, schedule: Q04DX003 (ip), vehicle: other) is 140 % of control [5 of 6 alive].

As for `CN(c1ccc(C2=NCCN2)cc1)S(=O)(=O)c1ccc(Cc2ccc(S(=O)(=O)N(C)c3ccc(C4=NCCN4)cc3)cc2)cc1`, the survivor count is recorded as 3 of 6 (dose: 25.0 mg/kg/injection, schedule: Q01DX005 (ip), vehicle: Klucel (hydroxypropylcellulose) (HPC)); 0 of 5 (dose: 50.0 mg/kg/injection, schedule: Q01DX005 (ip), vehicle: Klucel (hydroxypropylcellulose) (HPC)); 0 of 5 (dose: 100.0 mg/kg/injection, schedule: Q01DX005 (ip), vehicle: Klucel (hydroxypropylcellulose) (HPC)); 0 of 5 (dose: 200.0 mg/kg/injection, schedule: Q01DX005 (ip), vehicle: Klucel (hydroxypropylcellulose) (HPC)).

For `N=C(N)N1CCNc2ccc(Cl)cc2C1`, the survivor count (dose: 400.0 mg/kg/injection, schedule: Q04DX002 (ip), vehicle: saline with Tween-80) is 5 of 6.

With `Nc1nc(Cl)nc2c1ncn2C1OC(CO)C(O)C1F` (stereo not drawn), the T/C by setting is: (dose: 25.0 mg/kg/injection, schedule: Q01DX005 (ip), vehicle: saline) 131 % of control; (dose: 50.0 mg/kg/injection, schedule: Q01DX005 (ip), vehicle: saline) 135 % of control; under setting [4], 136 and 138 % of control. For the same compound, the survivor count (dose: 300.0 mg/kg/injection, schedule: Q01DX005 (ip), vehicle: saline) is on record as 0 of 3.

Take `COc1ccc(S(=O)(=O)NNS(=O)(=O)c2ccc(OC)c(OC)c2)cc1OC`: the survivor count is reported as 6 of 6 (dose: 100.0 mg/kg/injection, schedule: Q01DX005 (ip), vehicle: saline with Tween-80) and 6 of 6 under setting [3].

Regarding `C[Si](C)(C)S[Si](C)(C)C`, the survivor count under setting [5] is 0 of 6.

Turning to `C(=NCCN=Cc1ccccc1)c1ccccc1`, under setting [1], the survivor count is 5 of 6.

Take `[Cl][Pt+2]([Cl])([Cl])[Cl].[Na+].[S-]c1ncnc2nc[nH]c12.[S-]c1ncnc2nc[nH]c12`: the T/C (dose: 300.0 mg/kg/injection, schedule: Q01DX009 (ip), vehicle: saline with Tween-80) is 136 % of control.

For the compound `CCC[CH2][Sn]([F])([CH2]CCC)[O][Sn]([F])([CH2]CCC)[CH2]CCC`, where the note is “dose: 400.0 mg/kg/injection, schedule: Q04DX003 (ip), vehicle: saline”, the survivor count is on record as 4 of 6.

Consider `COc1cccc2c1C(=O)c1c(O)c3c(c(O)c1C2=O)C[C@@](O)(C(=O)CSc1nnc(C)s1)C[C@@H]3OC1CC(N)C(O)C(C)O1` (stereo partly drawn), for which the T/C (dose: 1.56 mg/kg/injection, schedule: Q01DX009 (ip), vehicle: water, evaluated on day 30) was 129 % of control; the T/C (dose: 1.56 mg/kg/injection, schedule: Q01DX009 (ip), vehicle: water, evaluated on day 45) is 133 % of control; the T/C (dose: 3.13 mg/kg/injection, schedule: Q01DX009 (ip), vehicle: water, evaluated on day 30) is 143 % of control; the T/C (dose: 3.13 mg/kg/injection, schedule: Q01DX009 (ip), vehicle: water, evaluated on day 45) is 142 % of control; the T/C (dose: 6.25 mg/kg/injection, schedule: Q01DX009 (ip), vehicle: water) was 146 % of control. In addition, the survivor count (dose: 25.0 mg/kg/injection, schedule: Q01DX009 (ip), vehicle: water) is 6 of 6 (2×).

As for `Cc1cc(Cl)n2nc(-c3ccc(Cl)cc3)nc2n1`, the survivor count is recorded as 5 of 6 (dose: 100.0 mg/kg/injection, schedule: Q01DX009 (ip), vehicle: Klucel (hydroxypropylcellulose) (HPC)) and 3 of 6 under setting [5].

Regarding `C/C(=N\NC(=S)N1CCCC1)c1ncccn1`, the survivor count (dose: 100.0 mg/kg/injection, schedule: Q04DX003 (ip), vehicle: Klucel (hydroxypropylcellulose) (HPC)) is 0 of 6; the survivor count (dose: 200.0 mg/kg/injection, schedule: Q04DX003 (ip), vehicle: Klucel (hydroxypropylcellulose) (HPC)) is 0 of 6; the survivor count (dose: 400.0 mg/kg/injection, schedule: Q04DX003 (ip), vehicle: Klucel (hydroxypropylcellulose) (HPC)) is on record as 0 of 6.

`C=C=CON1CCCCC1`: the survivor count reads like this: under setting [4], 0 of 6; (dose: 200.0 mg/kg/injection, schedule: Q01DX005 (ip), vehicle: saline) 0 of 6.

Take `Cc1cc(CN2CCN(CCO)CC2)c(O)c(CN2CCN(CCO)CC2)c1`: the survivor count under setting [2] is 0 of 6.
